These are yes or no findings as the source states them, for the method shown. In cells and extracts the contact can be indirect. Some results given as binding are weak or reduced against the parent protein; the word gives no strength.
What was measured:
[1] = target: Flag-tagged OSBPL2 (oxysterol-binding protein like 2) (UniProt Q9H1P3); experiment: co-IP; HEK293Ta cells expressing HA-ATIC or HA-ATIC truncations and Flag-OSBPL2; RIPA lysis buffer; Anti-FLAG M2 magnetic beads overnight at 4 °C; washed three times with RIPA; Western blot
GST-OSBPL2 = GST-OSBPL2 (UniProt Q9H1P3); experiment: pull-down; GST-OSBPL2 as bait, lysate of E. coli expressing His-ATIC; incubated with Anti-His, Anti-GST and Protein A/G overnight at 4 °C; washed with RIPA Lysis Buffer three times; only the target purified

Protein sequences, listed by entry. Tags and fused reporters are not part of them.
UniProt Q9H1P3: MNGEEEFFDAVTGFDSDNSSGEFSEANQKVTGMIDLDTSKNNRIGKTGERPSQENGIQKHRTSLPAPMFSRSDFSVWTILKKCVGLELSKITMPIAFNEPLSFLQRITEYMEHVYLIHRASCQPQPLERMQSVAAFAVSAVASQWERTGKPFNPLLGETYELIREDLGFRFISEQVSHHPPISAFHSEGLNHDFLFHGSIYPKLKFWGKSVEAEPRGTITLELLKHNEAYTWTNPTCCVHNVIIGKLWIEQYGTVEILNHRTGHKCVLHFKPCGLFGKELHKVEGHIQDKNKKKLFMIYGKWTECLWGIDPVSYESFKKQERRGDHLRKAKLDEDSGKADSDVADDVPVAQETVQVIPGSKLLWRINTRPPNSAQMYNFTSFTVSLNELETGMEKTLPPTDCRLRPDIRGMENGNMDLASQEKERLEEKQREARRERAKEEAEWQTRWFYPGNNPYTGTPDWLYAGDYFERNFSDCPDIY
UniProt P31939: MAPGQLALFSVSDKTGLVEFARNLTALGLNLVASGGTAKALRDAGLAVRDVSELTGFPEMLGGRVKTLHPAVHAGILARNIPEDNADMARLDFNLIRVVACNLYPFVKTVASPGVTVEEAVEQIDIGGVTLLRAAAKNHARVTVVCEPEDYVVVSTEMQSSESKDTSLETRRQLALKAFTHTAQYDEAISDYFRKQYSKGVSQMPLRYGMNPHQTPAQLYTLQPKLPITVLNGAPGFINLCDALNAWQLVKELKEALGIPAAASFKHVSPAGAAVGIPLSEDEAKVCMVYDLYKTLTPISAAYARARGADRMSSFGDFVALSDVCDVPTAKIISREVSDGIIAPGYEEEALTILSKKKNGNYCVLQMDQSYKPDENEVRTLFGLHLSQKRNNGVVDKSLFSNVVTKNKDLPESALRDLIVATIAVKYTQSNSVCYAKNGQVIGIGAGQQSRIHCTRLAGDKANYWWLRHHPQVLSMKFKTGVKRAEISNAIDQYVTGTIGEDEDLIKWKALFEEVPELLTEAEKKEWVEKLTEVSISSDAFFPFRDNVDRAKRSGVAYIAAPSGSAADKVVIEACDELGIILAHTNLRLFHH

binding [1] | binding (GST-OSBPL2) | Substance
binds |  | HA-ATIC (5-aminoimidazole-4-carboxamide ribonucleotide formyltransferase/inosine monophosphate cyclohydrolase) (from UniProt P31939 1-592) (enzyme)
 | binds | His-ATIC (from UniProt P31939 1-592) (enzyme)

Reference: publication PMC6700064
